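Human melanoma cells were exposed to two drugs together for 72 h in 1,536-well plates and read by automated microscopy after fixing and staining. Each value is the count of nuclei relative to DMSO-treated wells, in %, so that 100 equals the control. Every drug was used at one fixed concentration, the lower of two screened (a fifth of the higher). The file gives one value for each pair and line, without errors, so small differences may be noise.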 This is part of the screen, not chosen by result. An entry leaves out what has no value listed here. A dash means that no value is listed here.

Compounds and concentrations:
GW2580 (1000 nM): COc1ccc(COc2ccc(Cc3cnc(N)nc3N)cc2OC)cc1
gemcitabine (0.4 nM): Nc1ccn([C@@H]2O[C@H](CO)[C@@H](O)C2(F)F)c(=O)n1
vismodegib (1000 nM): CS(=O)(=O)c1ccc(C(=O)Nc2ccc(Cl)c(-c3ccccn3)c2)c(Cl)c1
crizotinib (200 nM): C[C@@H](Oc1cc(-c2cnn(C3CCNCC3)c2)cnc1N)c1c(Cl)ccc(F)c1Cl
RKI-983 (400 nM): C[C@@H](N)c1ccc(C(=O)Nc2ccnc3[nH]ccc23)cc1
perifosine (400 nM): CCCCCCCCCCCCCCCCCCOP(=O)([O-])OC1CC[N+](C)(C)CC1
sunitinib (400 nM): CCN(CC)CCNC(=O)c1c(C)[nH]c(/C=C2\C(=O)Nc3ccc(F)cc32)c1C
CX-4945 (400 nM): O=C(O)c1ccc2c(c1)nc(Nc1cccc(Cl)c1)c1ccncc12
vatalanib (2000 nM): Clc1ccc(Nc2nnc(Cc3ccncc3)c3ccccc23)cc1
ABT-263 (400 nM): CC1(C)CCC(c2ccc(Cl)cc2)=C(CN2CCN(c3ccc(C(=O)NS(=O)(=O)c4ccc(N[C@H](CCN5CCOCC5)CSc5ccccc5)c(S(=O)(=O)C(F)(F)F)c4)cc3)CC2)C1
tanespimycin (2 nM): C=CCNC1=C2C[C@@H](C)C[C@H](OC)[C@H](O)[C@@H](C)/C=C(\C)[C@H](OC(N)=O)[C@@H](OC)/C=C\C=C(/C)C(=O)NC(=CC1=O)C2=O
temozolomide (2000 nM): Cn1nnc2c(C(N)=O)ncn2c1=O
pazopanib (400 nM): Cc1ccc(Nc2nccc(N(C)c3ccc4c(C)n(C)nc4c3)n2)cc1S(N)(=O)=O
everolimus (20 nM): CO[C@H]1C[C@@H]2CC[C@@H](C)[C@@](O)(O2)C(=O)C(=O)N2CCCC[C@H]2C(=O)O[C@H]([C@H](C)C[C@@H]2CC[C@@H](OCCO)[C@H](OC)C2)CC(=O)[C@H](C)/C=C(\C)[C@@H](O)[C@@H](OC)C(=O)[C@H](C)C[C@H](C)/C=C/C=C/C=C/1C
indole-3-carbinol (800 nM): OCc1c[nH]c2ccccc12
bortezomib (1 nM): CC(C)C[C@H](NC(=O)[C@H](Cc1ccccc1)NC(=O)c1cnccn1)B(O)O
PF-562271 (80 nM): CN(c1ncccc1CNc1nc(Nc2ccc3c(c2)CC(=O)N3)ncc1C(F)(F)F)S(C)(=O)=O
FK866 (10 nM): O=C(/C=C/c1cccnc1)NCCCCC1CCN(C(=O)c2ccccc2)CC1

Pair	LOX IMVI	LB2518-MEL	G-361	MEL-HO	IST-MEL1	C32	IPC-298	COLO 792	COLO 829	COLO 800
crizotinib and RKI-983	88.6	-	93.9	95.5	96.4	-	101	81.0	71.0	105
sunitinib and ABT-263	65.6	106	71.6	76.2	71.2	-	99.0	48.5	137	46.3
FK866 and vatalanib	88.5	96.8	4.4	40.7	64.8	-	38.5	55.6	94.7	27.2
CX-4945 and gemcitabine	79.3	108	94.0	66.5	81.3	-	86.8	88.9	86.8	111
everolimus and perifosine	82.8	-	54.3	74.7	95.2	-	75.2	57.6	72.2	73.8
pazopanib and vatalanib	86.2	105	98.0	88.6	98.3	-	72.9	87.8	99.6	94.6
temozolomide and pazopanib	87.5	93.1	88.3	87.5	89.3	110	74.9	95.0	88.9	129
ABT-263 and everolimus	11.9	58.2	39.6	43.6	53.1	-	77.7	26.9	62.3	25.8
pazopanib and gemcitabine	97.9	98.2	88.6	103	82.2	-	78.2	109	102	141
FK866 and bortezomib	69.3	74.8	3.7	47.5	63.9	-	36.8	47.0	76.2	21.4
FK866 and PF-562271	55.3	78.8	4.7	39.8	60.5	-	30.8	45.0	57.4	25.9
FK866 and temozolomide	79.6	105	5.2	42.9	62.8	-	39.7	46.8	95.6	17.0
crizotinib and pazopanib	120	77.8	93.8	97.3	94.8	-	76.1	89.4	82.7	103
indole-3-carbinol and FK866	122	108	28.7	55.4	83.6	-	43.7	76.0	101	42.1
FK866 and crizotinib	102	98.1	6.5	52.2	58.3	-	36.4	45.1	81.7	34.1
RKI-983 and temozolomide	65.6	-	89.4	83.5	91.7	-	101	93.5	83.9	109
GW2580 and RKI-983	60.5	102	88.0	75.8	92.5	-	95.5	81.7	49.0	94.0
RKI-983 and sunitinib	81.0	-	101	90.2	99.7	-	102	81.2	96.1	90.1
pazopanib and bortezomib	92.2	88.3	85.8	106	89.6	-	83.2	108	71.4	105
pazopanib and vismodegib	135	94.2	106	99.5	98.5	-	80.5	105	114	107
PF-562271 and RKI-983	70.2	-	79.9	90.0	97.8	-	97.9	63.6	48.0	113
ABT-263 and vismodegib	55.1	99.2	79.7	83.0	66.4	-	100	61.7	84.2	58.9
FK866 and everolimus	63.9	81.2	7.4	42.1	62.3	-	43.2	52.3	84.1	39.1
FK866 and tanespimycin	38.8	82.8	6.9	45.3	62.0	-	44.5	39.1	85.5	26.7

Some entries from above, unchanged:

{"pair": "RKI-983 and temozolomide", "LOX IMVI": 65.6, "G-361": 89.4, "MEL-HO": 83.5, "IST-MEL1": 91.7, "IPC-298": 101, "COLO 792": 93.5, "COLO 829": 83.9, "COLO 800": 109}
{"pair": "RKI-983 and sunitinib", "LOX IMVI": 81.0, "G-361": 101, "MEL-HO": 90.2, "IST-MEL1": 99.7, "IPC-298": 102, "COLO 792": 81.2, "COLO 829": 96.1, "COLO 800": 90.1}
{"pair": "pazopanib and vismodegib", "LOX IMVI": 135, "LB2518-MEL": 94.2, "G-361": 106, "MEL-HO": 99.5, "IST-MEL1": 98.5, "IPC-298": 80.5, "COLO 792": 105, "COLO 829": 114, "COLO 800": 107}

From a melanoma drug combination screen (doi:10.1371/journal.pone.0140310); values rounded.